Measured values: publication doi:10.1101/2024.04.22.590536 (bioRxiv, 2024)
No constants are given. Whether binding was seen depends on the method and setting. Some results given as binding are weak or reduced against the parent protein; the word gives no strength. Tags and fused reporters may be left off the sequences shown.

The chains behind the UniProt entries cited, without tags or fusion partners.
UniProt P25586: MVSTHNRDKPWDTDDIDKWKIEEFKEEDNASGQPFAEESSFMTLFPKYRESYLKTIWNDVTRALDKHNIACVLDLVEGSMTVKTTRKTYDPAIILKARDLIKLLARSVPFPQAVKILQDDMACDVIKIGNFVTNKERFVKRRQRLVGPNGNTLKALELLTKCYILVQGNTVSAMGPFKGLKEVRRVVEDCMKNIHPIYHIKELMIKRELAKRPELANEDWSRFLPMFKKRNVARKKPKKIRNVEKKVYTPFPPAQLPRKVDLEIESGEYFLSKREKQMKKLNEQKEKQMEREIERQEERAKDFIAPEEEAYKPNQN

Tests used:
Test in all cases: two-hybrid
[1] = target: T1, ifh1-2 fused to the GAL4 DNA binding domain (S. cerevisiae) (UniProt P39520)
T1 sequence: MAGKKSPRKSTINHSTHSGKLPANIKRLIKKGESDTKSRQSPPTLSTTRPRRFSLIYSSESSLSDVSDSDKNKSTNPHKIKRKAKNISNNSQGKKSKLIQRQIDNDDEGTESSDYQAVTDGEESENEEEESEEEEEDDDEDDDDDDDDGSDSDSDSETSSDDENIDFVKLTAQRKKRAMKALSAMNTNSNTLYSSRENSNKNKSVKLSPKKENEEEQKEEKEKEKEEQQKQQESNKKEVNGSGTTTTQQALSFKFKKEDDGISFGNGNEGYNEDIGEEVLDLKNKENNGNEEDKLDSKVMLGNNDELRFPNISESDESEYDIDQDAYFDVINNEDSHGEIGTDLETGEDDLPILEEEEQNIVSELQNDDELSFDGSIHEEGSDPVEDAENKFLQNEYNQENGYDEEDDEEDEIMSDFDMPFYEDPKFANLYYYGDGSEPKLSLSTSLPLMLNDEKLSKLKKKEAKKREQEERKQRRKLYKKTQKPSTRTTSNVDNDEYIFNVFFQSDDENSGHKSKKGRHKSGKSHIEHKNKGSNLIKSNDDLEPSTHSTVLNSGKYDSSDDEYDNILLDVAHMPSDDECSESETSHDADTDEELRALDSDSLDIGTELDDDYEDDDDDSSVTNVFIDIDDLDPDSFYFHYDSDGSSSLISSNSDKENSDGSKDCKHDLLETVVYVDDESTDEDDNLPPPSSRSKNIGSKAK

[2] = target: Krr1 fused to the GAL4 DNA binding domain (S. cerevisiae) (UniProt P25586)
[3] = target: T2, Rrp7 fused to the GAL4 DNA binding domain (S. cerevisiae) (UniProt P25368)
T2 sequence: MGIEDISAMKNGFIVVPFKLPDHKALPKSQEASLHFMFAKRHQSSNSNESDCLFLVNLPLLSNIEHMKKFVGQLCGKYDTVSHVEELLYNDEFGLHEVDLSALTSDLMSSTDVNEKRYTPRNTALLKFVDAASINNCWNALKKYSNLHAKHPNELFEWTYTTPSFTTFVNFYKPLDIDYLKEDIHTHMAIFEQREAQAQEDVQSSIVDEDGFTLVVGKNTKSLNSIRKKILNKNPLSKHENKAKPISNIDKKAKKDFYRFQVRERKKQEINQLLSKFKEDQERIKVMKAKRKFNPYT

[4] = target: T3, Utp22 fused to the GAL4 DNA binding domain (S. cerevisiae) (UniProt P53254)
T3 sequence: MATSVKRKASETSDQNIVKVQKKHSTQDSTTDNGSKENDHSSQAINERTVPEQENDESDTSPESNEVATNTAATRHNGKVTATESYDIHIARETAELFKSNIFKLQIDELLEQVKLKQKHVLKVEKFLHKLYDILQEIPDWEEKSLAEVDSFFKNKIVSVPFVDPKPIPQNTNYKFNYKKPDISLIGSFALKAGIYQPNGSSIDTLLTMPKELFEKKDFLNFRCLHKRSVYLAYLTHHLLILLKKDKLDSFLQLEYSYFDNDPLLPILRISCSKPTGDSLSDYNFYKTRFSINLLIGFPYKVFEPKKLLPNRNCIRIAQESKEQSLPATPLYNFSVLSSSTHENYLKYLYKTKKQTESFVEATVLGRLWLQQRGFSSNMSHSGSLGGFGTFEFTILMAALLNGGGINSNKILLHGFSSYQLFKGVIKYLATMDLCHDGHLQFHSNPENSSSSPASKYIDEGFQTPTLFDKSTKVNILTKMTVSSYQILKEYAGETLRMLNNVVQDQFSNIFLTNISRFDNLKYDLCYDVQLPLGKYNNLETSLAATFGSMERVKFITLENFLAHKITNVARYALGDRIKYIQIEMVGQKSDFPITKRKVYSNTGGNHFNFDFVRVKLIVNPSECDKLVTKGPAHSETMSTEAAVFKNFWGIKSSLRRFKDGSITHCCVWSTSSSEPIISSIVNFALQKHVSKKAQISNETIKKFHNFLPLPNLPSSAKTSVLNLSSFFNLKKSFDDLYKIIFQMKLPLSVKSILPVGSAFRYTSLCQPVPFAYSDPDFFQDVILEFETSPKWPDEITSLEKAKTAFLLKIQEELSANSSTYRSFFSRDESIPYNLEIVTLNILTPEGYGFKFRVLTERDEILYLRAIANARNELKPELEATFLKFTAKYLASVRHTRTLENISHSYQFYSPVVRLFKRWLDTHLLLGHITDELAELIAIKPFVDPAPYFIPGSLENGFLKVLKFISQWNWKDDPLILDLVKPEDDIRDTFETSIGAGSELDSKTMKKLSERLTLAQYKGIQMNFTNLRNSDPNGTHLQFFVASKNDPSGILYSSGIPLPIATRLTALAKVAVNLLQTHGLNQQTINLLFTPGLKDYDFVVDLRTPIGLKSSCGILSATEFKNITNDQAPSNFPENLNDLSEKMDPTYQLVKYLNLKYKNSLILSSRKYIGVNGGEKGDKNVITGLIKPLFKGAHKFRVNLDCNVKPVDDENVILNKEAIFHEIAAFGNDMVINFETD

B1: Stm1 fused to the GAL4 activation domain (protein, UniProt P39015 1-273)
chain: MSNPFDLLGNDVEDADVVVLPPKEIVKSNTSSKKADVPPPSADPSKARKNRPRPSGNEGAIRDKTAGRRNNRSKDVTDSATTKKSNTRRATDRHSRTGKTDTKKKVNQGWGDDKKELSAEKEAQADAAAEIAEDAAEAEDAGKPKTAQLSLQDYLNQQANNQFNKVPEAKKVELDAERIETAEKEAYVPATKVKNVKSKQLKTKEYLEFDATFVESNTRKNFGDRNNNSRNNFNNRRGGRGARKGNNTANATNSANTVQKNRNIDVSNLPSLA
binding [1]: no binding
binding [2]: binds
binding [3]: binds
binding [4]: binds
